Test results taken from patent CN113637077A.
Results are given in words; binding and its absence hold for the method and conditions named. Some binding calls cover weakened binding; strength is not graded here.

T1: U937细胞表面MICA (human) (UniProt Q29983)
T1 sequence (looked up): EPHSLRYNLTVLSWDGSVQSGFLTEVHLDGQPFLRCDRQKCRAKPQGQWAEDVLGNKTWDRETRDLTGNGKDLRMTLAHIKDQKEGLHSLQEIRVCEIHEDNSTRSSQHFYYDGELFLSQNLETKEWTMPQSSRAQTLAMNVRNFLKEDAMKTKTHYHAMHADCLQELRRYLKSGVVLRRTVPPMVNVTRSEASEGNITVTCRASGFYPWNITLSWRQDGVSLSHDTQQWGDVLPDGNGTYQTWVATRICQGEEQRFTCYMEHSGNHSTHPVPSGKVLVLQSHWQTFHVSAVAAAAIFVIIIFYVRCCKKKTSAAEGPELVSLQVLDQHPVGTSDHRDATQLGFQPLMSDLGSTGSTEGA


Molecular target: T1, U937细胞表面MICA (human)
Test: flow cytometry on U937 cells, PE anti-human IgG Fc detection

| binding | Binder |
| --- | --- |
| binds | 3E5抗体 (Fc fusion, not shown: a dimerising Fc or GST) QVKLEESGGGLVQAGGSLRLSCAASGFSFDDYAIGWFRQALGKEREEREGVACISSSDRSTYYADPVKGRFAISSDNAKSTVYLQMTSLKPEDTAVYYCARLSRCSGYGPYTLWNWGQGTQVTVSS |
| binds | IPH4301 (antibody, V domains shown) VH: QVQLQESGPGLVKPSETLSLTCTVSGYSITSDYAWNWIRQPPGKGLEWIGFVSYSGTTKYNPSLKSSRVTISRDTSKNQFSLKLSSVTAADTAVYYCARGYGFDYWGQGTTVTVSS VL: EIVLTQSPATLSLSPGERATLSCSATSSISSIYFHWYQQKPGQAPRLLIYRTSNLASGIPARFSGSGSGTDYTLTISSLEPEDFAVYYCQQGTTIPFTFGQGTKLEIK |
